Source: doi:10.1101/2025.08.24.672030

Sequences of proteins named here, by UniProt entry; tags and fusion partners are left off. A change or cut given only in a name is not applied to a line headed by its entry.
UniProt P18887: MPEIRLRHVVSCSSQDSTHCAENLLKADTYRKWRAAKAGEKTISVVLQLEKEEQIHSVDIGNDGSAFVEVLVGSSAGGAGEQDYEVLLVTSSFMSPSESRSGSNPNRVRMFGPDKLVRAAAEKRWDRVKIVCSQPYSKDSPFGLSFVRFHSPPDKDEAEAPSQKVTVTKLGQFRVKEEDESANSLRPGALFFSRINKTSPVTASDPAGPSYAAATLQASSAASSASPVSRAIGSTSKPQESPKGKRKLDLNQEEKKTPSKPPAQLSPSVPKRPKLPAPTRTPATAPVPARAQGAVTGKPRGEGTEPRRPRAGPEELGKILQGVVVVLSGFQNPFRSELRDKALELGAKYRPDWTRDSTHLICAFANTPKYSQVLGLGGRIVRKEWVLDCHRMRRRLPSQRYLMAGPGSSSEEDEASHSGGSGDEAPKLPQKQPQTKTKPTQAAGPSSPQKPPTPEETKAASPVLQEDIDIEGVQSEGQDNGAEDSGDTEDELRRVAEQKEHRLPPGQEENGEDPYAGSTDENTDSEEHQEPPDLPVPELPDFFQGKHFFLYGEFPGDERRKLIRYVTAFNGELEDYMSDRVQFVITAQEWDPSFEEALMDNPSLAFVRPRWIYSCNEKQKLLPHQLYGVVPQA
UniProt Q92830: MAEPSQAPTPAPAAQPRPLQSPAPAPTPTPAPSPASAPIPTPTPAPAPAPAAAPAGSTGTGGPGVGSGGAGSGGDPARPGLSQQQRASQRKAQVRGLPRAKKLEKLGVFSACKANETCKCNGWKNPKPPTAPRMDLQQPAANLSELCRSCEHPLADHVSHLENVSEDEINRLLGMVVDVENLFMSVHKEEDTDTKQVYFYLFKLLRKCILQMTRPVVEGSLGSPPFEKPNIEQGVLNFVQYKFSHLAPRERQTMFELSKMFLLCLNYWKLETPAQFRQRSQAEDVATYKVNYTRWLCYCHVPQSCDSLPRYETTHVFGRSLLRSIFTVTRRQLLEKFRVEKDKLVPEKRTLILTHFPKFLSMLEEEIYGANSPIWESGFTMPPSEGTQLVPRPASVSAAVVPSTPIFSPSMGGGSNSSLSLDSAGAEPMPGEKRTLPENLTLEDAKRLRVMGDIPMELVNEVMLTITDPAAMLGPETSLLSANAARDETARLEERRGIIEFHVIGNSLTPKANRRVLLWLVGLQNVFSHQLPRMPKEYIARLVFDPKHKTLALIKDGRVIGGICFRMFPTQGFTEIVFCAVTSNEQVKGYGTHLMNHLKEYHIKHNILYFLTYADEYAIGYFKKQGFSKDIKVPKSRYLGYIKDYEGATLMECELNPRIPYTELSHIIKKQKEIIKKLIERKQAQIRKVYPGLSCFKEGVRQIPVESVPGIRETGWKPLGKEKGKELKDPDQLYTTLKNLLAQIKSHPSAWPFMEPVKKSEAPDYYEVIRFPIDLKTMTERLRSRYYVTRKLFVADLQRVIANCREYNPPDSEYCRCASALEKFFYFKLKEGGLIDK

B1: TADA2B (human, endogenous) (protein, UniProt Q86TJ2 1-420)
chain: MAELGKKYCVYCLAEVSPLRFRCTECQDIELCPECFSAGAEIGHHRRYHGYQLVDGGRFTLWGPEAEGGWTSREEQLLLDAIEQFGFGNWEDMAAHVGASRTPQEVMEHYVSMYIHGNLGKACIPDTIPNRVTDHTCPSGGPLSPSLTTPLPPLDISVAEQQQLGYMPLRDDYEIEYDQDAETLISGLSVNYDDDDVEIELKRAHVDMYVRKLKERQRRKNIARDYNLVPAFLGKDKKEKEKALKRKITKEEKELRLKLRPLYQFMSCKEFDDLFENMHKEKMLRAKIRELQRYRRNGITKMEESAEYEAARHKREKRKENKNLAGSKRGKEDGKDSEFAAIENLPGFELLSDREKVLCSSLNLSPARYVTVKTIIIKDHLQKRQGIPSKSRLPSYLDKVLKKRILNFLTESGWISRDAS

Experiments:
Assay in all cases: pull-down
SFB-XRCC1 ΔB2D (human) [1] = molecular target: SFB-XRCC1 ΔB2D (human) (UniProt P18887)
[2] = molecular target: GST-tagged truncated XRCC1, BRCT I domain (human)
[3] = molecular target: GST-tagged truncated XRCC1, BRCT II domain (human)
SFB-XRCC1 ΔB1D (human) = SFB-XRCC1 ΔB1D (human) (UniProt P18887)
SFB-XRCC1 ΔB2D (human) [4] = molecular target: SFB-XRCC1 ΔB2D (human) (UniProt P18887); remark: listed apart in the source
[5] = molecular target: SFB-tagged truncated XRCC1, BRCT I domain (B1D) (human)
[6] = molecular target: SFB-tagged truncated XRCC1, BRCT II domain (B2D) (human)
[7] = molecular target: SFB-tagged truncated XRCC1, N-terminal domain (NTD) (human)

Molecule	binding (SFB-XRCC1 ΔB2D (human) [1])	binding [2]	binding [3]	binding (SFB-XRCC1 ΔB1D (human))	binding (SFB-XRCC1 ΔB2D (human) [4])	binding [5]	binding [6]	binding [7]
GCN5 (human, endogenous) (from UniProt Q92830 1-837)	binds	–	–	–	–	–	–	–
B1	–	binds	binds	binds	no binding	binds	binds	binds

Like-named read-outs stand apart in the source and are kept apart here. No constants are given. Whether binding was seen depends on the method and setting. In cells and extracts the contact can be indirect. For some assays here: Binding calls can cover weak binding; strength is not graded here.
